Assay results taken from patent US20070128124A1 (published 2007).
At least one compound was matched to its structure with a doubt left.

System: MTB strain H37Rv
Assay type: cell-based, Mycobacterium tuberculosis

SMILES: CO[C@H]1/C=C/O[C@@]2(C)Oc3c(C)c(O)c4c(O)c(c(/C=N/N5CCN(C)CC5)c(O)c4c3C2=O)NC(=O)/C(C)=C\C=C\[C@H](C)[C@H](O)[C@@H](C)[C@@H](O)[C@@H](C)[C@H](OC(C)=O)[C@@H]1C [rifampicin]
- time of peak efficacy (RLU endpoint): approximately 72 hours
